PubChem BioAssay AID504774 | Drosophila RNAi Screening Center | 2011

Screen: 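Genes required for cells to withstand methyl methanesulphonate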 (primary screen)
Cells: Drosophila Kc167 cells
Knock-down reagent: long dsRNA against Drosophila genes, about 0.25 µg dsRNA per well
Duration: about 6 days: 3 days knock-down, then 3 days with or without MMS
Treatment: methyl methanesulphonate 0.004% (w/v) for 3 days after knock-down
Read-out: 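ATP-dependent luminescence as a measure of live cells in MMS-exposed wells, quantile normalised within each plate, with replicate values also given as a mean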
Direction: mean viability with MMS and viability with MMS: higher = more surviving cells after MMS
The deposit covers about 23,000 reagents; this is a random part of those with a known target gene and a result. 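Values are quantile-normalised luminescence on an arbitrary scale; higher means more cells surviving MMS.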 Not all columns of the deposit are shown. Reagent sequences are not shown.

Against CG13575 [DRSC04211], the values are mean viability with MMS 3.68e6; viability with MMS, replicate 1 = 4.19e6. After knock-down of CG13575 [DRSC22851], the record shows mean viability with MMS 3.35e6; viability with MMS, replicate 1 = 3.86e6. Depletion of Teh1 (tipE homolog 1) [DRSC14544] came out at: mean viability with MMS 3.61e6; viability with MMS, replicate 1 = 4.13e6. Knock-down of ppk16 (pickpocket 16) [DRSC02736] gave: mean viability with MMS 3.55e6; viability with MMS, replicate 1 = 4.05e6. Depletion of CG7506 [DRSC10860] came out at: mean viability with MMS 3.54e6; viability with MMS, replicate 1 = 3.97e6. With knock-down of CG10702 [DRSC02097], the screen gave mean viability with MMS 3.41e6; viability with MMS, replicate 1 = 3.87e6.

After knock-down of JMJD5 (Jumonji domain containing 5) [DRSC08372], the record shows mean viability with MMS 3.57e6; viability with MMS, replicate 1 = 4.00e6.

2 entries from above, reformatted.
gene	dsRNA	mean viability with MMS	viability with MMS, replicate 1
CG13575	DRSC22851	3.35e6	3.86e6
Teh1 (tipE homolog 1)	DRSC14544	3.61e6	4.13e6

The list goes on.
BTBD9 (BTB (POZ) domain containing 9) [DRSC18148] scored mean viability with MMS 3.80e6; viability with MMS, replicate 1 = 4.41e6. BTBD9 (BTB (POZ) domain containing 9) [DRSC22371] showed mean viability with MMS 3.28e6; viability with MMS, replicate 1 = 3.83e6. Depletion of Cyp28d1 (Cytochrome P450 28d1) [DRSC03298] resulted in: mean viability with MMS 3.69e6; viability with MMS, replicate 1 = 4.18e6. Cyp28d1 (Cytochrome P450 28d1) [DRSC21331] scored mean viability with MMS 3.66e6; viability with MMS, replicate 1 = 4.12e6. CG31195 [DRSC13440] scored mean viability with MMS 3.50e6; viability with MMS, replicate 1 = 3.98e6. For BBS5 (Bardet-Biedl syndrome 5) [DRSC12168] the deposit lists mean viability with MMS 3.41e6; viability with MMS, replicate 1 = 3.89e6.

After knock-down of CG30325 [DRSC05685], the screen gave mean viability with MMS 3.54e6; viability with MMS, replicate 1 = 3.99e6.
